Measurements reported in PubChem BioAssay AID1508597 (Cure First, 2020).
Screen: 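Knock-downs altering ovarian cancer cell survival with or without PARP inhibitor rucaparib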 (primary screen). System: human ovarian carcinoma lines grown from tumours: OCI-P5x (papillary serous) and OCI-C5x (clear cell). Reagents: siRNA pool against human genes, 1.25 pmol siRNA per well. Time to read-out: 72 h or 96 h, depending on the cell culture. Conditions: rucaparib 20 µM (about IC30) or vehicle, present until read-out. Rucaparib or vehicle: Rucaparib. Cell line: OCI-P5x (serous). Measured: 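ATP luminescence measured at 72 or 96 h according to the culture, then normalised and expressed as percent viability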. Scale: viability, normalised: higher = more viable cells remaining. Hit rule: 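Active when normalised viability falls below 80 percent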. Meaning of the calls: active = viability under 80%; inactive = viability 80% or more.
This is a random part of the about 2,100 reagents, in one setting of the screen. 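Calls flag viability under 80% in either arm, not effects specific to rucaparib; the reference for percent is not stated.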 Not stated in the record: the 100% reference.

Target gene,technical replicate,"viability, normalised (%)",Call
MAD2L2,1,74.6,active
MAD2L2,2,72.9,active
MAD2L2,3,72.4,active
PRDM12,1,42.7,active
PRDM12,2,55.1,active
PRDM12,3,59.7,active
NEK9,1,97.9,inactive
NEK9,2,91.4,inactive
NEK9,3,55.7,active
DPY30,1,62.6,active
DPY30,2,63.7,active
DPY30,3,70.3,active
MPG,1,93.9,inactive
MPG,2,89.3,inactive
MPG,3,87.4,inactive
PRMT2,1,53.2,active
PRMT2,2,52.3,active
PRMT2,3,48.2,active
SUPT4H1,1,55.5,active
SUPT4H1,2,62.8,active
SUPT4H1,3,69.2,active
PDE1B,1,40.2,active
PDE1B,2,41.5,active
PDE1B,3,38.5,active
CNR2,1,66.3,active
CNR2,2,79.5,active
CNR2,3,81.2,inactive
ZNF830,1,51.8,active
ZNF830,2,52.3,active
ZNF830,3,53.9,active
PIK3CG,1,72.2,active
PIK3CG,2,105,inactive
PIK3CG,3,99.9,inactive
RAD52,1,65.2,active
RAD52,2,71.2,active
RAD52,3,74.1,active
RPS6KA1,1,74.4,active
RPS6KA1,2,67.1,active
RPS6KA1,3,77.7,active
EME1,1,106,inactive
EME1,2,110,inactive
EME1,3,94.7,inactive
SCYL3,1,103,inactive
SCYL3,2,82.3,inactive
SCYL3,3,87.6,inactive
PTK2,1,156,inactive
PTK2,2,137,inactive
PTK2,3,125,inactive
CLOCK,1,53.4,active
CLOCK,2,49.4,active
CLOCK,3,48.9,active
SAFB,1,45.7,active
SAFB,2,45.1,active
SAFB,3,49.6,active
CSNK2A2,1,94,inactive
CSNK2A2,2,100,inactive
CSNK2A2,3,123,inactive

3 of these entries, set out differently:
{"Target gene":"RPS6KA1","technical replicate":"3","viability, normalised (%)":77.7,"Call":"active"}
{"Target gene":"EME1","technical replicate":"1","viability, normalised (%)":106,"Call":"inactive"}
{"Target gene":"EME1","technical replicate":"2","viability, normalised (%)":110,"Call":"inactive"}
